Out of some 330,000 compounds screened, about 7,700 (2.3%) were called active. Inconclusive means that the source gave no clear call. Such entries were picked first, then a sample of the others. Calls come from the whole dose curve; as a rule, active = well fitted inhibition curve with a large enough effect; inconclusive = small, poorly fitted or top-dose-only effect, or effect the other way; inactive = flat fitted curve, though single readings scatter. Where the call is inconclusive, the potency comes from a doubtful curve fit.
experiment: qHTS screen for small molecules that inhibit ELG1-dependent DNA repair in human embryonic kidney (HEK293T) cells expressing luciferase-tagged ELG1; conditions: HEK293T ELG1-luciferase reporter, luminescence, 16 h, DNA damage induced by 5-fluorouridine; series mostly up to 46.1 µM; note: nearly all actives have a fitted effect of over 55% in size
Outline: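 Quantitative HTS, concentration-response format. 2,000 cells/well co-treated with 5-fluorouridine and compound, 16 hr in 5% CO2 at 37 °C; ONE-Glo luminescence read after 30 min.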
Potency is the fitted concentration of half-maximal effect.

Compound | Potency
COc1ccc(OC2C(=O)N(CCc3ccc(OC)c(OC)c3)C2c2ccc3c(c2)OCO3)cc1 (stereo not given) | active: 18.4 µM
Cc1cc(/C=C2\SC(=Nc3ccccc3)NC2=O)c(C)n1-c1ccc(S(N)(=O)=O)cc1 | active: 11.2 µM
CC(=C\c1ccco1)/C=C(\C#N)C(=O)NCCc1c[nH]c2ccccc12 | inconclusive: 18.4 µM [inhibitor, partial curve, poor fit]
CC(C)(C)c1ccc(NC(=O)C2=CC=CN3CCS(=O)(=O)N=C23)cc1 | inconclusive: 14.6 µM [activator, partial curve]
COc1ccccc1Nc1nc2nonc2[nH]c1=O | inactive
Cc1nn(C)cc1C1C(C#N)=C(N)N(c2ccc(F)c([N+](=O)[O-])c2)C2=C1C(=O)CCC2 (stereo not given) | inconclusive: 11.6 µM [inhibitor, partial curve, poor fit]
O=C(O)CN1C(=O)/C(=C\c2cccc(OCc3ccc(Cl)cc3Cl)c2)SC1=S | inconclusive: 10 µM [activator, partial curve]
CCN(CC(=O)Nc1ccc(NC(C)=O)cc1)C(=O)c1cc(CN2C(=O)c3ccccc3C2=O)ccc1OC | inconclusive: 14.6 µM [inhibitor, partial curve, poor fit]
C/C(=N\N=c1/sc2ccccc2n1C)c1ccc(N2CCOCC2)cc1 | inconclusive: 23.1 µM [activator, single point]
CCOc1ccc(CCNC(=O)C2CCCN(c3nn4c(=O)cc(C)nc4s3)C2)cc1OCC (stereo not given) | inconclusive: 7.31 µM [inhibitor, single point]
O=C(Nn1cnnc1)c1cc(-c2cccc(Br)c2)nc2ccccc12 | inconclusive: 18.3 µM [activator, partial curve]
COc1cccc(CNn2c(-c3cccc(C)c3)nc3ccccc3c2=O)c1 | active: 20.6 µM
Cc1nc2ccc(NC(=O)N3CCOCC3)cc2nc1C | inconclusive: 10.3 µM [inhibitor, partial curve, poor fit]
COc1ccc(-c2oc3ncnc(NCCCO)c3c2-c2ccc(OC)cc2)cc1 | active: 18.3 µM
N#C/C(=N\O)c1nc(-c2ccccc2)cs1 | inactive
C/C(N)=C(/C#N)C(=O)COC(=O)c1cccc2ccccc12 | inconclusive: 16.4 µM [activator, partial curve, poor fit]
Cc1cccc(OCC(=O)Nc2cc(S(=O)(=O)N3CCCCC3)ccc2N2CCN(C)CC2)c1 | inconclusive: 23.1 µM [inhibitor, single point]
Cc1nn(C2CCS(=O)(=O)C2)c(Cl)c1/C=C/C(=O)OCC(=O)Nc1ccccc1OC(F)F (stereo not given) | inconclusive: 18.4 µM [inhibitor, partial curve]
CN(C)c1ccc(N=Cc2nc(-c3ccccc3)oc2OC(=O)c2cccc(Br)c2)cc1 | inconclusive: 8.2 µM [activator, partial curve]
Cc1nc2nc(C)c(NS(=O)(=O)c3ccc4c(c3)CCCC4)c(=O)n2[nH]1 | inconclusive: 0.326 µM [inhibitor, partial curve, poor fit]

Random excerpt: 3 entries already listed, in no set order.
Compound | Potency
Cc1nn(C2CCS(=O)(=O)C2)c(Cl)c1/C=C/C(=O)OCC(=O)Nc1ccccc1OC(F)F (stereo not given) | inconclusive: 18.4 µM [inhibitor, partial curve]
Cc1cccc(OCC(=O)Nc2cc(S(=O)(=O)N3CCCCC3)ccc2N2CCN(C)CC2)c1 | inconclusive: 23.1 µM [inhibitor, single point]
O=C(O)CN1C(=O)/C(=C\c2cccc(OCc3ccc(Cl)cc3Cl)c2)SC1=S | inconclusive: 10 µM [activator, partial curve]

Later entries

Compound | Potency
Cc1ccccc1NC(=O)CSc1nnc(CNC(=O)c2ccc3c(c2)OCO3)n1C | inconclusive: 16.4 µM [activator, partial curve, poor fit]
CC1(C)Cc2c(C#N)c(N3CCN(C(=O)c4ccco4)CC3)nc(Cc3ccccc3)c2CO1 | inconclusive: 29.1 µM [inhibitor, single point]
CCOC(=O)C(C(C)=O)c1nc(C)nc2c1nnn2Cc1ccccc1Cl (stereo not given) | inconclusive: 16.4 µM [inhibitor, partial curve, poor fit]
CCOc1ccc(-c2nnc(-c3ccccc3)n2-c2ccccc2)cc1 | inconclusive: 23.1 µM [activator, partial curve, poor fit]
c1ccc(N2CC3CCc4ccccc4C3=N2)cc1 (stereo not given) | inconclusive: 13 µM [activator, partial curve]
FC(F)(F)c1cnc(NNC(=S)Nc2cccnc2)c(Cl)c1 | inconclusive: 23.1 µM [inhibitor, single point]
COc1ccccc1N1CCN(C(=O)CNC(=O)c2ccc(Cl)cc2Cl)CC1 | inconclusive: 18.3 µM [inhibitor, partial curve]
Nc1nc(Nc2cccc(F)c2)nc(NCc2ccco2)c1[N+](=O)[O-] | inactive
Cc1ccc(-c2csc(NC(=O)Cc3cccs3)n2)cc1C | inconclusive: 13 µM [activator, partial curve]
CN(C)c1ccc(/C=N/NC(=O)c2ccccc2)cc1 | inconclusive: 5.17 µM [activator, partial curve]
Cn1c(=O)cc(OCC(=O)N2CCCc3ccccc32)c2ccccc21 | inactive
CC(=O)c1ccc(N=C2SCCCN2C(=O)C2CCCC2)cc1 | inconclusive: 20.6 µM [activator, single point]
CC1(C)C(=O)Nc2ccccc2N1C(=O)Cn1ncc(Cl)c(Cl)c1=O | inconclusive: 29.1 µM [inhibitor, single point]
COCCN(C)Cc1cn(-c2ccc(F)cc2F)nc1-c1ccccc1C | inconclusive: 29.1 µM [inhibitor, single point]
Cc1cc(C)cc(NC(=O)NCc2ccccn2)c1 | inconclusive: 16.4 µM [activator, partial curve, poor fit]
Cc1cc(C(=O)C(=O)O)c(C)n1-c1ccc(Cl)cc1 | inactive
CC1CC(C)CN(C(=O)c2cc(-c3ccncc3)nc3ccccc23)C1 (stereo not given) | inconclusive: 23.1 µM [activator, single point]
O=C(CSc1nc2ccccc2o1)N/N=C/c1ccc(O)c(O)c1 | inconclusive: 11.6 µM [activator, partial curve]
Cc1ccnc(SCCn2c(N3CCN(c4ccccc4)CC3)nc3c2c(=O)[nH]c(=O)n3C)n1 | inconclusive: 4.61 µM [inhibitor, single point]
CCOC(=O)c1cnc2nc(N3CCOCC3)nn2c1N | inconclusive: 25.9 µM [activator, single point]

From PubChem BioAssay AID504467 (National Center for Advancing Translational Sciences (NCATS), 2011)
